These results are taken from patent US20240262845A1, “PYRIDINIUM SALTS, METHODS OF MAKING, AND METHODS OF USE” (UNIVERSITY OF WYOMING, priority 2023, published 2024).

The subject of the data set is HEK293T cells. Kind of data set: In-situ chemoproteomic tryptophan profiling of live HEK293T cells. It is filed as cell-based, human. The procedure: Cell culture and in-situ tryptophan probe treatment: Cell lines were cultured at 37° C. with 5% CO2. Human embryonic kidney 293 cells expressing a mutant version of the SV40 large T antigen (HEKT293T cells) were grown in Dulbecco's Modified Eagle Medium (DMEM, Gibco) supplemented with 10% fetal bovine serum and 1% penicillin/streptomycin. For in-situ labeling, cells were grown to 90% confluence, washed with Dulbecco's phosphate buffered saline (DPBS), treated with 100× stocks of the tryptophan probes (the pyridinium salts) in OptiMem (GibCo) to generate final concentrations (0 μM, 1 μM, 10 μM, and 100 μM) in 1% dimethylsulfoxide (DMSO). Cells were incubated for 1 hour at 37° C. with 5% CO2 followed by photo-activation at the respective wavelengths for 20 minutes at 4° C. Cells were harvested with a cell scraper, washed 3× with DPBS, and pellets were stored at −80° C. until further use. […]
In-situ tryptophan probe sample processing for peptide-level characterization: Cell pellets were lysed via sonication (QSonica) at 50% amplitude, 2 seconds ON, 3 seconds OFF, 30 seconds in 40 mM HEPES pH 7.5 (4-(2-hydroxyethyl)-1-piperazineethanesulfonic acid), 1.5 mM magnesium chloride (MgCl2), 1% Sodium dodecyl sulfate (SDS), 0.8% NP-40 (also known as nonyl phenoxypolyethoxylethanol), and 1× protease inhibitors (Thermo). Protein concentration was determined by BCA (Pierce). […]

Structures are written as SMILES. Entries after “also recorded” stand apart in the source; their conditions may differ. Where a name gives a salt, the structure may show the parent alone.

`COc1ccc2cc(-c3cc(C)[n+](N(C)C(=O)OCCCCCCN=[N+]=[N-])c(C)c3)ccc2c1` [pyridinium salt 2d, 1-((((6-azidohexyl)oxy)carbonyl)(methyl)amino)-4-(6-methoxynaphthalen-2-yl)-2,6-dimethylpyridin-1-ium tetrafluoroborate]: the “Trp residue of NPM1 labeled in situ” value (NPM1) is “Trp290”. Moreover, the “Trp residues of PARP1 modified and dose-dependently enriched in situ” value (PARP1) is “Trp79; also recorded: Trp318”.
